No constants are given. Whether binding was seen depends on the method and setting. Binding can be weak; no strength is given.

By UniProt entry, the sequences of proteins in these tests, tags left out. Where a name states a change or a piece, a line headed by the entry shows the natural chain unless it says otherwise.
UniProt Q14CN2: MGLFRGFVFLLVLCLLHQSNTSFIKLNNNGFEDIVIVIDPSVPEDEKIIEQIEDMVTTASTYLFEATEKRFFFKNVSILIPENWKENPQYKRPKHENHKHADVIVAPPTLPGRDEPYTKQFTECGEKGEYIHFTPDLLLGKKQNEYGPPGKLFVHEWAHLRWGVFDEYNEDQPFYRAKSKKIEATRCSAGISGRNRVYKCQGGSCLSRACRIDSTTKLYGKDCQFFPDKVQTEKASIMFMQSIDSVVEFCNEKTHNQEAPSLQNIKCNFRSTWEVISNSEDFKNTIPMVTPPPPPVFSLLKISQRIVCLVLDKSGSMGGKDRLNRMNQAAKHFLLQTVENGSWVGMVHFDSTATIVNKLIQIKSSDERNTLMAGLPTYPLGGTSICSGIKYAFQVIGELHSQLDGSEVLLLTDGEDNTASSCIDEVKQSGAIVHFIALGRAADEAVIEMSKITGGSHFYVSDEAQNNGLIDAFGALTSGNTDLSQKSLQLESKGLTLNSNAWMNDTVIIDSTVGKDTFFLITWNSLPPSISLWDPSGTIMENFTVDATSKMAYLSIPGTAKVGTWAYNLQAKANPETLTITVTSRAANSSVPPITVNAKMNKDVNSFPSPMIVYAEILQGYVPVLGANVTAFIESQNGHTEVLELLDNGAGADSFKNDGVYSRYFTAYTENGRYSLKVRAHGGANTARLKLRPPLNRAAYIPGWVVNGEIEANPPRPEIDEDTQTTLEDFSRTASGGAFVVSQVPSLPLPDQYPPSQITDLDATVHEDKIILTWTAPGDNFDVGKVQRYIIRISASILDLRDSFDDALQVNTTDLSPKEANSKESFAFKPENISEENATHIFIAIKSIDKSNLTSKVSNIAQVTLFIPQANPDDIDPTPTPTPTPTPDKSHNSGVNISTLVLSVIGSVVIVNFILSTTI
UniProt P08670: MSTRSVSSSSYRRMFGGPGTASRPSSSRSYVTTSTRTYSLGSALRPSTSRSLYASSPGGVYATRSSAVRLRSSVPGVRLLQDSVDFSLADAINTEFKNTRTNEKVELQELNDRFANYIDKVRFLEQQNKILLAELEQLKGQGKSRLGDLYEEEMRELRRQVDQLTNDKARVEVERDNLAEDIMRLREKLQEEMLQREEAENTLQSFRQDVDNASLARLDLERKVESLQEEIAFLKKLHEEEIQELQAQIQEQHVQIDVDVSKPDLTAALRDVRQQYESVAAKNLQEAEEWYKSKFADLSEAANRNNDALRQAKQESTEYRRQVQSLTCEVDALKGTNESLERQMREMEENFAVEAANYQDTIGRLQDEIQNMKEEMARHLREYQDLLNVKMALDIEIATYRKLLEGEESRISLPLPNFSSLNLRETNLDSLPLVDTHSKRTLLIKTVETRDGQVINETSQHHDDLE

The experiment concerns the target GST-CLCA4 fusion protein (UniProt Q14CN2). Put plainly: pull-down; purified GST-CLCA4 or GST control combined with His-Vimentin, overnight at 4 °C, washed; Western blotting; both purified. (In general: In western blotting, separated proteins are transferred to a membrane and probed.)

For the substance “His-Vimentin (from UniProt P08670 1-466)”, the binding entry was “binds”.
